{"source": "patent US12428442B2", "about": "“Compounds, compositions and methods for synthesis” (WAVE LIFE SCIENCES LTD., priority 2017, dated 2025)"}
{"experiment": "Use of chiral auxiliaries / phosphoramidite monomers in oligonucleotide synthesis (SOCICS or DPSE cycle), analysed by RP-HPLC/UPLC (Table 7)", "settings": "dC dimer; cycle DPSE; activator 0.5M CMIMT", "units": {"Dimer Conv. %": "%", "Dimer HPLC Area % dC": "%", "Dimer HPLC Area % dCC (PO)": "%", "Dimer HPLC Area % dCC (Rp)": "%", "Dimer HPLC Area % dCC (Sp)": "%"}}
{"smiles": "C[Si]1(C[C@@H](O)[C@@H]2CCCN2)CCCCC1", "note": "[WV-CA-052]", "Dimer Conv. %": 66.4, "Dimer HPLC Area % dC": 15.03, "Dimer HPLC Area % dCC (PO)": 1.59, "Dimer HPLC Area % dCC (Rp)": 2.33, "Dimer HPLC Area % dCC (Sp)": 81.05, "Dimer Rp/Sp": "Sp", "Dimer d.r.": 97.21}
{"smiles": "C[Si](C[C@@H](O)[C@@H]1C[C@@H]2CCC[C@@H]2N1)(c1ccccc1)c1ccccc1", "note": "[WV-CA-119, (S)-2-(methyldiphenylsilyl)-1-((2S,3aS,6aS)-octahydrocyclopenta[b]pyrrol-2-yl)ethan-1-ol]", "Dimer Conv. %": 97.3, "Dimer HPLC Area % dC": 1.40, "Dimer HPLC Area % dCC (PO)": 0.50, "Dimer HPLC Area % dCC (Rp)": 0.72, "Dimer HPLC Area % dCC (Sp)": 97.38, "Dimer Rp/Sp": "Sp", "Dimer d.r.": 99.27}
{"smiles": "C[Si](C[C@H](O)[C@@H]1CCCCN1)(C1CCCCC1)C1CCCCC1", "note": "[WV-CA-046]", "Dimer Conv. %": 82.7, "Dimer HPLC Area % dC": 6.81, "Dimer HPLC Area % dCC (PO)": 0.90, "Dimer HPLC Area % dCC (Rp)": 29.03, "Dimer HPLC Area % dCC (Sp)": 63.25, "Dimer Rp/Sp": "Sp", "Dimer d.r.": 68.54}
{"experiment": "Use of chiral auxiliaries / phosphoramidite monomers in oligonucleotide synthesis (SOCICS or DPSE cycle), analysed by RP-HPLC/UPLC (Table 7)", "settings": "dC dimer; cycle SOSICS; activator CMPT", "units": {"Dimer Conv. %": "%", "Dimer HPLC Area % dC": "%", "Dimer HPLC Area % dCC (PO)": "%", "Dimer HPLC Area % dCC (Rp)": "%", "Dimer HPLC Area % dCC (Sp)": "%"}}
{"smiles": "CN[C@H]1CCCCC[C@@H]1O", "note": "[WV-CA-221]", "Dimer Conv. %": 48.7, "Dimer HPLC Area % dC": 30.46, "Dimer HPLC Area % dCC (PO)": 2.33, "Dimer HPLC Area % dCC (Rp)": 46.40, "Dimer HPLC Area % dCC (Sp)": 8.38, "Dimer Rp/Sp": "Rp", "Dimer d.r.": 84.71}
{"smiles": "OC1([C@@H]2CCCCN2)CCCC1", "note": "[WV-CA-064-S]", "Dimer Conv. %": 11.4, "Dimer HPLC Area % dC": 55.52, "Dimer HPLC Area % dCC (PO)": 0.93, "Dimer HPLC Area % dCC (Rp)": 12.36, "Dimer HPLC Area % dCC (Sp)": 0.87, "Dimer Rp/Sp": "Rp", "Dimer d.r.": 93.44}
{"smiles": "OC1(C2CCCN2)c2ccccc2-c2ccccc21", "note": "(centres unmarked) [WV-CA-164]", "Dimer Conv. %": 66.4, "Dimer HPLC Area % dC": 20.2741, "Dimer HPLC Area % dCC (PO)": 0.2216, "Dimer HPLC Area % dCC (Rp)": 9.2876, "Dimer HPLC Area % dCC (Sp)": 69.4561, "Dimer Rp/Sp": "Sp", "Dimer d.r.": 88.21}
{"smiles": "C[C@@](O)(C1CCCCC1)[C@@H]1CCCN1", "note": "[WV-CA-005-L]", "Dimer Conv. %": 79.8, "Dimer HPLC Area % dC": 10.9756, "Dimer HPLC Area % dCC (PO)": 0.5404, "Dimer HPLC Area % dCC (Rp)": 0.6921, "Dimer HPLC Area % dCC (Sp)": 84.352, "Dimer Rp/Sp": "Sp", "Dimer d.r.": 99.19}
{"smiles": "OC1([C@@H]2C[C@@H]3CCCC[C@@H]3N2)CCCC1", "note": "[WV-CA-098]", "Dimer Conv. %": 39.8, "Dimer HPLC Area % dC": 42.54, "Dimer HPLC Area % dCC (PO)": 1.86, "Dimer HPLC Area % dCC (Rp)": 4.48, "Dimer HPLC Area % dCC (Sp)": 49.12, "Dimer Rp/Sp": "Sp", "Dimer d.r.": 91.64}
{"smiles": "CN[C@@H](C1CCCCC1)C1(O)CCCC1", "note": "[WV-CA-071S]", "Dimer Conv. %": 5.0, "Dimer HPLC Area % dC": 74.21, "Dimer HPLC Area % dCC (PO)": 1.93, "Dimer HPLC Area % dCC (Rp)": 5.18, "Dimer HPLC Area % dCC (Sp)": 0.60, "Dimer Rp/Sp": "Rp", "Dimer d.r.": 89.58}
{"smiles": "C[C@](O)(c1ccccc1)[C@@H]1CCCCN1", "note": "[WV-CA-011-S]", "Dimer Conv. %": 3.1, "Dimer HPLC Area % dC": 76.98, "Dimer HPLC Area % dCC (PO)": 2.47, "Dimer HPLC Area % dCC (Rp)": 2.41, "Dimer HPLC Area % dCC (Sp)": 0.00, "Dimer Rp/Sp": "Rp", "Dimer d.r.": 100.00}
{"smiles": "OC1([C@H]2CCCN2)CCCC1", "note": "[WV-CA-059-R]", "Dimer Conv. %": 86.8, "Dimer HPLC Area % dC": 7.15, "Dimer HPLC Area % dCC (PO)": 1.73, "Dimer HPLC Area % dCC (Rp)": 90.17, "Dimer HPLC Area % dCC (Sp)": 0.95, "Dimer Rp/Sp": "Rp", "Dimer d.r.": 98.96}
{"smiles": "CC(C)[C@](C)(O)[C@@H]1CCCN1", "note": "[WV-CA-056-S]", "Dimer Conv. %": 66.4, "Dimer HPLC Area % dC": 20.2741, "Dimer HPLC Area % dCC (PO)": 0.2216, "Dimer HPLC Area % dCC (Rp)": 9.2876, "Dimer HPLC Area % dCC (Sp)": 69.456, "Dimer Rp/Sp": "Sp", "Dimer d.r.": 88.21}
{"smiles": "C[C@@](O)(c1cc(F)cc(F)c1)[C@@H]1CCCN1", "note": "[WV-CA-082]", "Dimer Conv. %": 60.8, "Dimer HPLC Area % dC": 23.24, "Dimer HPLC Area % dCC (PO)": 1.44, "Dimer HPLC Area % dCC (Rp)": 0.72, "Dimer HPLC Area % dCC (Sp)": 68.93, "Dimer Rp/Sp": "Sp", "Dimer d.r.": 98.96}
{"smiles": "CNC1CCCCC1C1(O)CC1", "note": "(centres unmarked) [WV-CA-160]", "Dimer Conv. %": 42.2, "Dimer HPLC Area % dC": 40.4914, "Dimer HPLC Area % dCC (PO)": 0.6205, "Dimer HPLC Area % dCC (Rp)": 45.8627, "Dimer HPLC Area % dCC (Sp)": 11.7766, "Dimer Rp/Sp": "Rp", "Dimer d.r.": 79.57}
{"smiles": "C[C@@](O)(C1CCC1)[C@@H]1CCCN1", "note": "[WV-CA-225]", "Dimer Conv. %": 77.3, "Dimer HPLC Area % dC": 12.71, "Dimer HPLC Area % dCC (PO)": 1.78, "Dimer HPLC Area % dCC (Rp)": 1.48, "Dimer HPLC Area % dCC (Sp)": 81.99, "Dimer Rp/Sp": "Sp", "Dimer d.r.": 98.22}
{"smiles": "CNC1(C)C(O)C2CCC1C1C3CCC(CC3)C21", "note": "(centres unmarked) [WV-CA-170]", "Dimer Conv. %": 35.4, "Dimer HPLC Area % dC": 45.8889, "Dimer HPLC Area % dCC (PO)": 0.5981, "Dimer HPLC Area % dCC (Rp)": 46.7151, "Dimer HPLC Area % dCC (Sp)": 2.2635, "Dimer Rp/Sp": "Rp", "Dimer d.r.": 95.38}
{"smiles": "OC1([C@@H]2CCCN2)CCCC1", "note": "[WV-CA-059]", "Dimer Conv. %": 89.5, "Dimer HPLC Area % dC": 5.5686, "Dimer HPLC Area % dCC (PO)": 0.4474, "Dimer HPLC Area % dCC (Rp)": 1.017, "Dimer HPLC Area % dCC (Sp)": 92.058, "Dimer Rp/Sp": "Sp", "Dimer d.r.": 98.91}
{"smiles": "CC(C)[C@@](C)(O)[C@@H]1CCCN1", "note": "[WV-CA-056]", "Dimer Conv. %": 84.8, "Dimer HPLC Area % dC": 8.05, "Dimer HPLC Area % dCC (PO)": 0.66, "Dimer HPLC Area % dCC (Rp)": 3.49, "Dimer HPLC Area % dCC (Sp)": 84.70, "Dimer Rp/Sp": "Sp", "Dimer d.r.": 96.04}
{"smiles": "CC(C)(O)[C@@H]1CCCN1", "note": "[WV-CA-090]", "Dimer Conv. %": 86.1, "Dimer HPLC Area % dC": 7.45, "Dimer HPLC Area % dCC (PO)": 1.68, "Dimer HPLC Area % dCC (Rp)": 3.06, "Dimer HPLC Area % dCC (Sp)": 86.04, "Dimer Rp/Sp": "Sp", "Dimer d.r.": 96.57}
{"experiment": "Use of chiral auxiliaries / phosphoramidite monomers in oligonucleotide synthesis (SOCICS or DPSE cycle), analysed by RP-HPLC/UPLC (Table 7)", "settings": "no dimer cycle, activator or HPLC data printed"}
{"smiles": "CC[Si](CC)(CC)C[C@@H](O)[C@@H]1CCCN1", "note": "[WV-CA-067]", "Dimer Rp/Sp": "Sp"}
{"smiles": "CC(C)N[C@H]1CCCC[C@]1(C)O", "note": "[WV-CA-075-S]", "Dimer Rp/Sp": "Sp"}
{"smiles": "O[C@]1([C@@H]2CCCN2)CCc2ccccc21", "note": "[WV-CA-074-R]", "Dimer Rp/Sp": "Sp"}
{"smiles": "C[C@](O)(c1ccccc1)[C@H]1CCCN1", "note": "[WV-CA-100-D]", "Dimer Rp/Sp": "Sp"}
